Results taken from patent publication US10105437B2 (BTG International Limited, priority 2004, dated 2018).
Where a sequence shows no end group, the ends are not given.

Experiment: peptide made by a vendor
Conditions: whole synthesis, reverse phase-HPLC, amino acid sequence analysis or mass spectroscopy, scale of the general procedure approximately 0.6 micromole (first library), approximately 0

| Sequence | purity (crude or final not stated) (run 1) [%] | purity (crude or final not stated) (run 2) | purity (crude or final not stated) [%] |
| --- | --- | --- | --- |
| IKDFHVYFRESRDALWKGPG | 50 | 64% (range: 55-71%) | – |
| VLQQHNIAHGSSQVLQESTY | – | – | 19 |
